Experimental data taken from ChEMBL document CHEMBL3045324, “5-phenyl-1-benzofuran-2-yl derivatives: synthesis, antimicrobial, and antioxidant activity” (2013).

Test system: Candida albicans
Experiment: Antifungal activity against Candida albicans NCPF 3179 assessed as growth inhibition at 50 mg/mL after 3 days
Assay type: functional

## NYSTATIN
  inhibition zone (IZ): 6 mm
